The values that follow come from PubChem BioAssay AID493014 (National Center for Advancing Translational Sciences (NCATS), 2011).

Some of the results follow. Shown are side measurements of this screen, not its main read-out; they come without a call. The list favours compounds with an active or inconclusive main result. Words in brackets tell the shape of the fitted curve; partial curves, single points and poor fits give uncertain potencies.

The assay is described as follows: qHTS Assay to Find Inhibitors of Chronic Active B-Cell Receptor Signaling. The settings on record: ABC-DLBCL IkBa-CBG/CBR reporter, luminescence ratio (green luciferase fused to IkBa over red control in TMD8 lymphoma cells), 4 h; measured here: CBR red luminescence, cell number. The essentials: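 Compounds up to 46 uM were incubated four hours with TMD8 cells whose green CBG68 luciferase is fused to IkappaBalpha; red CBR luminescence normalised the signal, and concentration-effect curves were fitted to fusion, red and ratio data.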
(In general: qHTS replaces the single test concentration by a dilution series.)
Broadly, the AC50 is the midpoint of the concentration-response curve, whichever way the signal moves. Regarding `CCC(C)c1ccc(-c2cc(C(=O)OCC(=O)Nc3cc(C)on3)c3ccccc3n2)cc1` (stereo not drawn), the AC50 is 2.91 µM [rising, partial curve].
The same measure for `O=C(O)c1ccccc1-c1ccccc1C(=O)NNc1ccccc1`: 32.6 µM [rising, single point]; for `CN1C(=O)c2oc3ccccc3c(=O)c2C1c1ccncc1` (stereo not drawn): 11.2 µM [falling, single point].
With `Cc1cccc(Sc2c([N+](=O)[O-])ncn2C)c1` the figure was 14.1 µM [falling, single point].
Turning to `Cc1nc(N2CCOCC2)sc1C(=O)NN`, the AC50 is 7.08 µM [falling, partial curve].
For the molecule `O=C(C1CCCN(Cc2ccncc2)C1)N1CCc2ccccc2C1` (stereo not drawn), the AC50 was 3.55 µM [rising, partial curve].
With `Cc1cccc(N2C(=O)C3C(c4ccccc4)OC4(C(=O)c5ccccc5C4=O)C3C2=O)c1` (stereo not drawn) the figure was 35.5 µM [falling, partial curve, poor fit].
With `COc1ccc(CNC(=O)C2CCCN(c3nccc(C)n3)C2)cc1` (stereo not drawn), the AC50 is 23.1 µM [rising, single point].
The same measure for `O=C(CNC(=O)c1ccccc1)OC(C(=O)Nc1cc(C(F)(F)F)ccc1Cl)c1ccccc1` (stereo not drawn): 9.2 µM [rising, partial curve, poor fit].
On to `CCCCNc1c(-c2cccc(-c3cc(C(C)=O)cs3)c2)nc2ccc(C)cn12`, for which the AC50 was 11.6 µM [falling, partial curve, poor fit].
With `COc1ccc2cc(C(=O)NCc3ccco3)c(=O)oc2c1` the figure was 7.31 µM [falling, partial curve].
On to `COc1ccc(-c2nc3ccccc3nc2-c2ccc(OC)cc2)cc1`, for which the AC50 is 11.2 µM [rising, partial curve, poor fit].
With `Cn1c(=O)c2c(nc(SCC(=O)NCC3CCCO3)n2Cc2ccc(F)cc2)n(C)c1=O` (stereo not drawn) the figure was 31.6 µM [rising, single point]; with `CCOC(=O)c1sc(NC(=O)c2cccc(S(=O)(=O)N(CC)CC)c2)cc1C`, 0.116 µM [falling, full curve, poor fit].
The same measure for `O=C(O)c1ccc(-n2c(-c3ccc(Br)cc3)n[nH]c2=S)cc1`: 9.2 µM [falling, partial curve, poor fit]; for `CCc1nnc(NC(=O)CSc2nnc3c(n2)[nH]c2ccccc23)s1`: 1.58 µM [rising, full curve, poor fit].
The same measure for `Cc1ccc2nc(-c3ccc(NC(=O)CSc4nc(N)cc(=O)[nH]4)cc3)sc2c1`: 8.91 µM [rising, partial curve, poor fit]; for `O=C(c1ccc(-c2cccc(C(F)(F)F)c2)o1)N1CCCC(C(F)(F)F)C1` (stereo not drawn): 2.31 µM [rising, partial curve, poor fit].
